Source: patent publication US20140017242A1, “ANTI-BRADYKININ B2 RECEPTOR (BKB2R) MONOCLONAL ANTIBODY” (Diamedica, Inc., priority 2010, published 2014)

System: ZDF fa/fa rats
Assay: 21-day ZDF fa/fa study: body weight, food and water intake
Format: in vivo, rat

## N[C@@H](CC(=O)N1CCn2c(nnc2C(F)(F)F)C1)Cc1cc(F)c(F)cc1F [sitagliptin, reference compound]
10 mg/kg p.o. 1×/daily
  water consumption: 48+/−7 ml/rat/day
10 mg/kg p.o. 1×/daily, day 21
  food consumption: 31+/−2 g/rat/day
  percent increase in body weight: 10+/−2%

B1: 5F12G1: murine monoclonal anti-BKB2R antibody (IgG2b,κ), VH comprising SEQ ID NO:1, VL comprising SEQ ID NO:2 (antibody, listed as Mus musculus, V domains shown)
VH: EVKLEESGGGLVQPGGSMKLSCVVSGFTFSDYWMSWVRHSPEMGLEWVAEIRLKSDNYATHYAESVKGRFTISRDDSKSRLYLQINSLRGEDTGIYYCTRDYYAMEYWGQGTSVTVSS
VL: DVVMTQTPLSLPVSLGDQASISCRSSQTIVHSNGKTYLEWYLQKPGQSPKLLIYKVSNRFSGVPDRFSGSGSGTEFTLKISRVETEDLGVYYCFQASHVPYTFGGGTKLEIK
0.008 mg/kg s.c. every 3 days, day 21
  food consumption: 30+/−0.5 g/rat/day
0.04 mg/kg s.c. every 3 days
  water consumption: 40+/−10 ml/rat/day
0.04 mg/kg s.c. every 3 days, day 21
  food consumption: 27+/−2 g/rat/day
0.2 mg/kg s.c. every 3 days
  water consumption: 26+/−3 ml/rat/day
0.2 mg/kg s.c. every 3 days, day 21
  food consumption: 28+/−1 g/rat/day
All dosage groups (0.2, 0.04, 0.008 mg/kg s.c. every 3 days), by day 21
  percent increase in body weight: ~13+/−1%
Third dosage group, dose not printed at the value (0.008 mg/kg)
  water consumption: 28+/−4 ml/rat/day
